These are yes or no findings as the source states them, for the method shown. Some results given as binding are weak or reduced against the parent protein; the word gives no strength.

By UniProt entry, the sequences of proteins in these tests, tags left out. Where a name states a change or a piece, a line headed by the entry shows the natural chain unless it says otherwise. Residues count along the entry.
UniProt Q9NPH3, residues 21-367: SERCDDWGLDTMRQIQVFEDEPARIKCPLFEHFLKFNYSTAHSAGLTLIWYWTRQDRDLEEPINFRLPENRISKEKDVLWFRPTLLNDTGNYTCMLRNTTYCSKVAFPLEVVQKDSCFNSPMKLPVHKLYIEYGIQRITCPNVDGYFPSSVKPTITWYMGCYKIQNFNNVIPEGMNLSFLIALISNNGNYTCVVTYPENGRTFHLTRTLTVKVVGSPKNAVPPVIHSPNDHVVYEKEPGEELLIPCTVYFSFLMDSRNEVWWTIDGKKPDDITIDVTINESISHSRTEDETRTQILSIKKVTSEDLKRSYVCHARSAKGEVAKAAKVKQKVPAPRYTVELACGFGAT

This passage reports binding results from patent US20240392013A1, “IL1RAP ANTIBODIES AND USES THEREOF” (STELEXIS THERAPEUTICS, LLC, priority 2021, published 2024).

This test concerns the target recombinant human IL1RAP protein, extracellular domain His-tagged (Sino Biological, Cat #10121-H08H) (human) (UniProt Q9NPH3). Nature of the test: summary of Example 1 (ELISA, Octet).

B1: STLX2025 (antibody, V domains shown)
VH: QVQLVQSGAEVKKPGSSVKVSCKASGDTFSNYAITWVRQAPGQGLEWIVGFSPIFGTANYAQKFQGRVTITADKSTSTAYMELSSLISEDTAVYYCAWGSGNFNWFDPWGQGTLVTVSS
VL: AIRMTQSPSSFSASTGDRVTITCRASQGISSYLAWYQQKPGKAPKLLIYAASTLQSGVPSRFSGSGSGTDFTLTISSLQSEDFATYYCQQYYSYPLTFGGGTKVEIK
As for B1, the binding entry is recorded as “binds”.

B2: STLX2045 (antibody, V domains shown)
VH: EVQLVESGGGLVKPGGSLRLACAATGFTFSNVWMSWVRQGSGKGLEWVGRIKSKADGGTIDYAAPVKGRFTISRDDSKNTLYLQMNSLKTEDTAMYYCTTGELLGFDYWGQGTLVTVSS
VL: DIVMTQSPLSLPVTPGEPASISCRSGQSLLHSNGFNCLAWYLQKPGQSPQLLIYLGSNRASGVPDRFSGSGSGTDFTLKISRVEAEDVGVYYCMQTLQTPITFGQGTRLEIK
With B2, the binding entry is reported as “binds”.
